In publication PMC3890302 one finds binding data, which are given here for two substances.

Protein sequences, listed by entry. Tags and fused reporters are not part of them. Lines headed by an entry give the natural chain unless they say otherwise; changes in a name come on top.
UniProt Q9AJ30: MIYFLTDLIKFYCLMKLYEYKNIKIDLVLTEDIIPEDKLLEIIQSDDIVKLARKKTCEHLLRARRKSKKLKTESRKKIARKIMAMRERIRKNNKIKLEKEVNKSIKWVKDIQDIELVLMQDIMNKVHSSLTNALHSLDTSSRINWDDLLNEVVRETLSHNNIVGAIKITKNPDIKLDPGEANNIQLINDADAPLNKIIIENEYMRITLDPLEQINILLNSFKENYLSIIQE
UniProt Q7DB80: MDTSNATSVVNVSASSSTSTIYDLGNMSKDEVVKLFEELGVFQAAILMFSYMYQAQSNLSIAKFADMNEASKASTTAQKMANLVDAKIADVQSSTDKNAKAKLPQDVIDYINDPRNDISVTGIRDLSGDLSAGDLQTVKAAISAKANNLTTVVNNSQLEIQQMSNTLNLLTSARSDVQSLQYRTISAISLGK

One test concerns the target T1, His×6-tagged YgfZ (UniProt P0ADE8).
T1 sequence: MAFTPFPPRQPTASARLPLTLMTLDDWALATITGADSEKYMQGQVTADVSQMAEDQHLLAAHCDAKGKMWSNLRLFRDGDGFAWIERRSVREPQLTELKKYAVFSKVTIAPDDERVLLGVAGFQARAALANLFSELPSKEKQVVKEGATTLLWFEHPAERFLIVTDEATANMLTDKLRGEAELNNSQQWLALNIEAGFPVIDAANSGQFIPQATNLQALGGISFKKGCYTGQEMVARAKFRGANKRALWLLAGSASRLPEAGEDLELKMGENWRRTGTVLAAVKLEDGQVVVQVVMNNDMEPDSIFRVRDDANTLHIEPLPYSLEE
The test is described as follows: pull-down; only the target purified.

Test [1] has as its target His×6-tagged EscL (enterohemorrhagic E. coli O157:H7) (UniProt Q9AJ30). The test is described as follows: pull-down; only the target purified.

These are yes or no findings as the source states them, for the method shown. Binding seen in cells or lysates may run through a third protein. For some assays here: A result given as binding can be weak or reduced; the word gives no strength. For some assays here: Tags and fused reporters may be left off the sequences shown.

As for tag-free EscA, the binding entry with His×6-tagged YgfZ is recorded as “no binding”. For the substance tag-free EspA (from UniProt Q7DB80), the binding entry in test [1] was “binds”.
